Experimental data from patent US20040077080.
For some assays here: Negatives hold for the conditions tested. For some assays here: Where a protein sequence is shown, tags need not be part of it. For some assays here: A weaker result is weaker than the reference pair of the same experiment.

Chains of the proteins cited; added tags and fusions are not shown. A line that says so, or that is headed by a name, gives the form on record, which may keep a tag or linker.
PXR/RXR heterodimer (hPXR/hRXRa) (Homo sapiens), one chain, as listed by the source, chain 1 of 2: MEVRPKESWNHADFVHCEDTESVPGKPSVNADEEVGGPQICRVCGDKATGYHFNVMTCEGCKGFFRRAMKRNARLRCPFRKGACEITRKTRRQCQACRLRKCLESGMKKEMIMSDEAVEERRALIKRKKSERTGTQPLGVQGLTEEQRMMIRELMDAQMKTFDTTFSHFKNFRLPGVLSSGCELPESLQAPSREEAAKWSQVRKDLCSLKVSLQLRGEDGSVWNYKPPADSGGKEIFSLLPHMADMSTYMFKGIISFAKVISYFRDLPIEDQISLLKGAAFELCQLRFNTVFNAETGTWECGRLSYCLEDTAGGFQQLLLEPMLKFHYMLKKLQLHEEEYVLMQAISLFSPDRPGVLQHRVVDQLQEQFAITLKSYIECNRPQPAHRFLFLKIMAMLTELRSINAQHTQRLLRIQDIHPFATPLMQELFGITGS
PXR/RXR heterodimer (hPXR/hRXRa) (Homo sapiens), one chain, as listed by the source, chain 2 of 2: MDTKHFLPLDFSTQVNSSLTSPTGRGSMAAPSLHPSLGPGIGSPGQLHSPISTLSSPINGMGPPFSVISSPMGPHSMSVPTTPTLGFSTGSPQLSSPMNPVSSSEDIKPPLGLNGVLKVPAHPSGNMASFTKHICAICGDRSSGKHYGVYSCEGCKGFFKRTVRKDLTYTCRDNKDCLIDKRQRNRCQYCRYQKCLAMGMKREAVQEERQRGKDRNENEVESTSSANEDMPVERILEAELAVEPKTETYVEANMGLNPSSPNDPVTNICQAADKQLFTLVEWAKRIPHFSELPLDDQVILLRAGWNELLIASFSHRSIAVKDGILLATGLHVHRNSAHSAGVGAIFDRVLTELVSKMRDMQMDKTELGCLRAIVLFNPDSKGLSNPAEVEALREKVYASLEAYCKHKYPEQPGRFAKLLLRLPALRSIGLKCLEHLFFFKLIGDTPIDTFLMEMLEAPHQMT

Columns and labels:
[1] = test system: PXR/RXR heterodimer (hPXR/hRXRa) (Homo sapiens); assay: EMSA; conditions: protein translated in vitro; protein details: TNT coupled transcription/translation (Promega); label: 32P
[2] = test system: T1, CAR (hCAR alone) (Homo sapiens); assay: EMSA; conditions: protein translated in vitro; protein details: TNT coupled transcription/translation (Promega); label: 32P
T1 sequence (looked up, limits assumed): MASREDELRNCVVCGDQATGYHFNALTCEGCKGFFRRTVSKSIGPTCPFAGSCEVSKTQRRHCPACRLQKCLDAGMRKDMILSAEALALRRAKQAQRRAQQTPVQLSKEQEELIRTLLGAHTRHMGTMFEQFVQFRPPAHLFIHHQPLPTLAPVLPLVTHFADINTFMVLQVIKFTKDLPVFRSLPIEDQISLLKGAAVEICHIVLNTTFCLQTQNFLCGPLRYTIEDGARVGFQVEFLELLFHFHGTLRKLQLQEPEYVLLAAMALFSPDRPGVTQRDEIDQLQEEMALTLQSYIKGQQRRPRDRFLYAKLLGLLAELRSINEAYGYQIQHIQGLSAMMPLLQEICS

AACCAAACTCTTCTGACCCCCAATCT (double strand) [CYP2C19 F4 fragment]
binding result [1]: binds more weakly
binding result [2]: no binding
